Laboratory results reported in US9096538B2, “Pharmaceutical comprising PPAR agonist” (Senju Pharmaceutical Co., Ltd., priority 2005, dated 2015).
At least one structure is not confirmed: it was looked up by name or label, or the drawing left a doubt.

Tested on: monkey meibomian gland epithelial cell
Test: Test Example 3: increase in cell number, cultured monkey meibomian gland epithelial cell (Cell Counting Kit-8)
Type: cell-based, cynomolgus monkey
Conditions: 48 + 48 hours; p<0.01 where significant
Protocol: A female cynomolgus monkey (Environmental Biological Life Science Research Center) was used. The experimental animal was used according to the International Guiding Principles for Biomedical Research Involving Animals.
A meibomian gland epithelial cell was prepared from a monkey eyelid. An eyelid was isolated, and stored in Dulbecco's phosphate buffered saline (D-PBS; Invitrogen), and this was transferred to a clean bench. The following cell preparation procedures were all performed sterilely.
After the isolated eyelid was immersed in 80% ethanol for 30 seconds, the eyelid was washed with D-PBS with 1% penicillin-streptomycin (Invitrogen) added thereto three times, and transferred to a minimum essential medium (MEM; Invitrogen). A fat tissue and a muscle tissue surrounding a meibomian gland tissue were removed under a stereomicroscope, and this was transferred to MEM containing 0.475 U/mL of collagenase A (Roche Diagnostics) and 2.4 U/mL of dispase II (Roche Diagnostics), and incubated at 37° C. overnight. After completion of incubation, the enzyme-treated tissue was placed again under the stereomicroscope, eyelashes and an eyelid connective tissue were removed, and a meibomian gland tissue was isolated. To the isolated gland tissue was added 1 mL of trypsin-EDTA (Invitrogen), and this was incubated at 37° C. for 5 minutes. […]

**Q.** How did the “cell proliferation compared to the no addition group (in words)” value turn out when `Cc1c(C)c2c(c(C)c1O)CCC(C)(COc1ccc(CC3SC(=O)NC3=O)cc1)O2` (stereo not shown) [troglitazone] was run?
**A.** showed no cell proliferation promoting activity
